Assay results: PubChem BioAssay AID256 (DTP/NCI, 2004)
The list does not hold the whole screen: it gathers tests that were run many times, whatever their T/C, doses with no T/C, and many T/C values between a quarter and a half above the control. Other doses and runs of a compound stand elsewhere. T/C: endpoint of the treated group in % of that of the vehicle group. Some doses have a count of surviving animals in place of a T/C: the source files T/C as zero there, which appears to mark a toxic dose or a test without result, not a measured value. Some survivor counts are full or nearly so, which does not show that the dose was tolerated: survival well below the control is almost never listed, so the zero probably covers shortened survival too. Counts of survivors are from the toxicity check (mostly the fifth day) where no day follows; animals may have died later. Schedule codes are those of the source, taken here to give the interval after Q, in days (D) or hours (H), and the number of doses after X. Some entries were tested several times; the values are given in rising order. For survival time, the PubChem record calls one and a half times the control and up active, and a quarter to a half above the control has no call in these data; cut-offs in other NCI protocols can differ. Some T/C values are followed by the survivors on the day toxicity was checked, most often the fifth; without a count, all were alive then.

Test system: CD2F1 mice, L1210 leukemia ip, survival T/C
Experiment: NCI In Vivo Anticancer Drug Screen. Data for tumor model L1210 Leukemia (intraperitoneal) in CD2F1 (CDF1) mice
Conditions: higher T/C = longer survival
How it was run: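 Each value reflects a quotient of treated over vehicle control outcomes in mice with a transplanted tumor.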

[1] = T/C endpoint: mean survival time, dose: 100.0 mg/kg/injection, schedule: Q04DX003 (ip), vehicle: saline with Tween-80
[2] = T/C endpoint: mean survival time, dose: 200.0 mg/kg/injection, schedule: Q04DX003 (ip), vehicle: saline with Tween-80
[3] = T/C endpoint: mean survival time, dose: 400.0 mg/kg/injection, schedule: Q04DX003 (ip), vehicle: saline with Tween-80
[4] = T/C endpoint: mean survival time, dose: 100.0 mg/kg/injection, schedule: Q04DX003 (ip), vehicle: saline
[5] = T/C endpoint: mean survival time, dose: 200.0 mg/kg/injection, schedule: Q04DX003 (ip), vehicle: saline
[6] = T/C endpoint: mean survival time, dose: 400.0 mg/kg/injection, schedule: Q04DX003 (ip), vehicle: saline
[7] = T/C endpoint: mean survival time, dose: 400.0 mg/kg/injection, schedule: Q01DX009 (ip), vehicle: saline with Tween-80
[8] = T/C endpoint: mean survival time, dose: 50.0 mg/kg/injection, schedule: Q01DX009 (ip), vehicle: Klucel (hydroxypropylcellulose) (HPC)
[9] = T/C endpoint: mean survival time, dose: 100.0 mg/kg/injection, schedule: Q01DX009 (ip), vehicle: Klucel (hydroxypropylcellulose) (HPC)
[10] = T/C endpoint: mean survival time, dose: 200.0 mg/kg/injection, schedule: Q01DX009 (ip), vehicle: Klucel (hydroxypropylcellulose) (HPC)

## COc1cc2cccc(N)c2cc1OC
T/C endpoint: mean survival time, dose: 100.0 mg/kg/injection, schedule: Q01DX009 (ip), vehicle: water
  survivor count: 0 of 6
T/C endpoint: mean survival time, dose: 200.0 mg/kg/injection, schedule: Q01DX009 (ip), vehicle: water
  survivor count: 1 of 6

## Cc1ccc(C(=O)NC2C(=O)NC(C(C)C)C(=O)N3CCCC3C(=O)N(C)CC(=O)N(C)C(C(C)C)C(=O)OC2C)c2c1Oc1c(c(C(=O)NC3C(=O)NC(C(C)C)C(=O)N4CCCC4C(=O)N(C)CC(=O)N(C)C(C(C)C)C(=O)OC3C)c3nc(-c4ccccc4)c(=O)oc3c1C)N2 (stereo not drawn)
T/C endpoint: median survival time, dose: 0.12 mg/kg/injection, schedule: Q01DX009 (ip), vehicle: water
  T/C: 128 % of control
T/C endpoint: median survival time, dose: 0.5 mg/kg/injection, schedule: Q01DX009 (ip), vehicle: water
  T/C: 142 and 145 % of control
T/C endpoint: median survival time, dose: 1.0 mg/kg/injection, schedule: Q01DX009 (ip), vehicle: water
  survivor count: 4 of 6 and 6 of 6
T/C endpoint: median survival time, dose: 2.0 mg/kg/injection, schedule: Q01DX009 (ip), vehicle: water
  survivor count: 2 of 6

## COc1cc(OC)c(/C=C/c2cnc3ccccc3n2)c(OC)c1
[1]
  survivor count: 6 of 6
[2]
  survivor count: 6 of 6
[3]
  survivor count: 6 of 6

## CCCCCCCCCCCCNC(=O)C[n+]1cccc(C(=O)NC)c1
[4]
  survivor count: 0 of 6
[5]
  survivor count: 0 of 6
[6]
  survivor count: 0 of 6

## Clc1ccc(C#Cc2ccc(Cl)cc2)cc1
[2]
  survivor count: 2 of 6

## CC1=C(N2CC2)C(=O)C2=C(C1=O)N1CC3C(N3C)C1(O)C2COC(N)=O (stereo not drawn)
T/C endpoint: mean survival time, dose: 2.33 mg/kg/injection, schedule: Q01DX001 (ip), vehicle: carboxymethylcellulose (CMC)
  T/C: 127 % of control
T/C endpoint: mean survival time, dose: 3.5 mg/kg/injection, schedule: Q01DX001 (ip), vehicle: carboxymethylcellulose (CMC)
  T/C: 135 % of control

## NCCCNCCSP(=O)(O)O
[7]
  survivor count: 6 of 6

## O=[N+]([O-])c1cc(S(=O)(=O)c2ccc(F)c([N+](=O)[O-])c2)ccc1F
[8]
  survivor count: 0 of 3
[9]
  survivor count: 0 of 3
[10]
  survivor count: 0 of 3

## COc1ccc(C2C(C(C)=O)=C(C)NC(C)=C2C(C)=O)cc1
[3]
  survivor count: 6 of 6

## Cc1cc(O)c2c(c1)C(=O)C13C(=C2O)C(=O)C2C(O)C1C1C(O)C3C(=O)C3=C(O)c4c(O)cc(C)cc4C(=O)C321 (stereo not drawn)
[1]
  survivor count: 6 of 6
[2]
  survivor count: 2 of 6
[3]
  survivor count: 0 of 6

## CN(C)CCCNc1cc(O)c2c(c1O)C(=O)c1ccccc1C2=O
T/C endpoint: mean survival time, dose: 400.0 mg/kg/injection, schedule: Q01DX009 (ip), vehicle: water
  survivor count: 3 of 6

## O=[N+]([O-])c1cccc(C=Nc2ccc3c(c2)C(Br)c2ccccc2-3)c1 (stereo not drawn)
[3]
  survivor count: 5 of 6

## CS(=O)(=O)OCCN(CCOS(C)(=O)=O)c1ccc(N=O)c(Cl)c1
[2]
  T/C: 133 % of control
[3]
  survivor count: 2 of 6

## O=P(Nc1ccccc1)(OCc1ccccc1)N(CCCl)CCCl (stereo not drawn)
T/C endpoint: mean survival time, dose: 500.0 mg/kg/injection, schedule: Q01DX010 (ip), vehicle: saline
  survivor count: 0 of 6

## CCCCCCC[CH2][Sn]1([CH2]CCCCCCC)[O]C2C(CO)OC(n3ccc(N)nc3=O)C2[O]1 (stereo not drawn)
T/C endpoint: mean survival time, dose: 200.0 mg/kg/injection, schedule: Q01DX005 (ip), vehicle: other
  survivor count: 0 of 6

## FC(F)(F)/C([S-])=C(/[S-])C(F)(F)F.N#[O+].[Mn].[c-]1[c-][c-][cH-][c-]1
T/C endpoint: mean survival time, dose: 150.0 mg/kg/injection, schedule: Q01DX001 (ip), vehicle: other
  survivor count: 1 of 6
T/C endpoint: mean survival time, dose: 300.0 mg/kg/injection, schedule: Q01DX001 (ip), vehicle: other
  survivor count: 0 of 6

## CCOC1C=CCCC1 (stereo not drawn)
[7]
  survivor count: 3 of 6

## CN(C)Cc1cc(C(C)(C)CC(C)(C)C)cc(CN(C)C)c1O
[2]
  survivor count: 2 of 6
[3]
  survivor count: 0 of 6

## O=[N+]([O-])c1ccc(Cn2cc[n+](Cc3ccc([N+](=O)[O-])cc3)c2)cc1
T/C endpoint: mean survival time, dose: 100.0 mg/kg/injection, schedule: Q01DX001 (ip), vehicle: saline with Tween-80
  survivor count: 1 of 6
T/C endpoint: mean survival time, dose: 200.0 mg/kg/injection, schedule: Q01DX001 (ip), vehicle: saline with Tween-80
  survivor count: 0 of 6
T/C endpoint: mean survival time, dose: 400.0 mg/kg/injection, schedule: Q01DX001 (ip), vehicle: saline with Tween-80
  survivor count: 0 of 6

## CCCCNc1c(C(=O)N2CCCCC2)cnc2c1cnn2CC
[6]
  survivor count: 0 of 3

## O=Cc1cc(Cl)ccc1O
[7]
  survivor count: 0 of 6
[3]
  survivor count: 4 of 6

## CCCCn1ccnc1C
T/C endpoint: mean survival time, dose: 50.0 mg/kg/injection, schedule: Q01DX009 (ip), vehicle: saline
  survivor count: 1 of 6
T/C endpoint: mean survival time, dose: 50.0 mg/kg/injection, schedule: Q04DX003 (ip), vehicle: saline
  survivor count: 6 of 6
T/C endpoint: mean survival time, dose: 100.0 mg/kg/injection, schedule: Q01DX009 (ip), vehicle: saline
  survivor count: 0 of 6
[4]
  survivor count: 0 of 6
T/C endpoint: mean survival time, dose: 200.0 mg/kg/injection, schedule: Q01DX009 (ip), vehicle: saline
  survivor count: 0 of 6
[5]
  survivor count: 0 of 6

## CN1CC(NC(=O)N(CCCl)N=O)CC2c3cccc4[nH]cc(c34)CC21 (stereo not drawn)
T/C endpoint: mean survival time, dose: 25.0 mg/kg/injection, schedule: Q01DX001 (ip), vehicle: other
  T/C: 137 % of control

## C[N+](C)(C)/N=C/c1ccc(Cl)cc1
T/C endpoint: mean survival time, dose: 100.0 mg/kg/injection, schedule: Q04DX002 (ip), vehicle: saline with Tween-80
  survivor count: 0 of 3
T/C endpoint: mean survival time, dose: 200.0 mg/kg/injection, schedule: Q04DX002 (ip), vehicle: saline with Tween-80
  survivor count: 0 of 3

## CCOC(=O)/C(C)=C/C(O)CO (stereo not drawn)
T/C endpoint: mean survival time, dose: 400.0 mg/kg/injection, schedule: Q01DX009 (ip), vehicle: saline sonified
  survivor count: 6 of 6

## CCC1(O)CC2CN(CCc3c([nH]c4ccccc34)C(C(=O)OC)(c3cc4c(cc3OC)N(C)C3C(O)(C(=O)NCCSSCCNC(=O)C5(O)C(O)C6(CC)C=CCN7CCC8(c9cc(C%10(C(=O)OC)CC%11CN(CCc%12c%10[nH]c%10ccccc%12%10)CC(O)(CC)C%11)c(OC)cc9N(C)C58)C76)C(O)C5(CC)C=CCN6CCC43C65)C2)C1 (stereo not drawn)
T/C endpoint: median survival time, dose: 0.38 mg/kg/injection, schedule: Q01DX009 (ip), vehicle: suspension in saline
  T/C: 127 and 135 % of control
T/C endpoint: median survival time, dose: 0.64 mg/kg/injection, schedule: Q01DX009 (ip), vehicle: suspension in saline
  T/C: 139 [5 of 6 alive] and 149 % of control
T/C endpoint: median survival time, dose: 1.08 mg/kg/injection, schedule: Q01DX009 (ip), vehicle: suspension in saline
  survivor count: 2 of 6
T/C endpoint: median survival time, dose: 1.8 mg/kg/injection, schedule: Q01DX009 (ip), vehicle: suspension in saline
  survivor count: 2 of 6 and 5 of 6
T/C endpoint: median survival time, dose: 3.0 mg/kg/injection, schedule: Q01DX009 (ip), vehicle: suspension in saline
  survivor count: 1 of 6 and 1 of 4

## Cc1cc(N(CC(C)Br)CC(C)Br)ccc1N=Nc1ccccc1C(=O)O (stereo not drawn)
T/C endpoint: mean survival time, dose: 12.5 mg/kg/injection, schedule: Q01DX009 (ip), vehicle: Klucel (hydroxypropylcellulose) (HPC)
  T/C: 128 % of control
T/C endpoint: mean survival time, dose: 12.5 mg/kg/injection, schedule: Q01DX009 (ip), vehicle: saline with Tween-80
  T/C: 129, 138, 139 % of control
T/C endpoint: mean survival time, dose: 25.0 mg/kg/injection, schedule: Q01DX009 (ip), vehicle: saline with Tween-80
  survivor count: 5 of 6
[8]
  survivor count: 0 of 3
[9]
  survivor count: 0 of 3
[10]
  survivor count: 0 of 3

## Nc1nc2c(c(=O)[nH]1)N=C(CCc1ccccc1)CO2
T/C endpoint: mean survival time, dose: 400.0 mg/kg/injection, schedule: Q01DX009 (ip), vehicle: other
  survivor count: 3 of 6

## COC1C(O)C(C)OC(OC2CC(O)C3(C)C(CCC4C3CCC3(C)C(C5=CC(=O)OC5)CCC43O)C2)C1O (stereo not drawn) (tested in a mixture with another compound)
T/C endpoint: mean survival time, dose: 100.0 mg/kg/injection, schedule: Q01DX001 (ip), vehicle: saline sonified
  survivor count: 0 of 6
T/C endpoint: mean survival time, dose: 200.0 mg/kg/injection, schedule: Q01DX001 (ip), vehicle: saline sonified
  survivor count: 0 of 6

## O=C(NCc1ccco1)C1COc2ccccc2O1 (stereo not drawn)
T/C endpoint: median survival time, dose: 200.0 mg/kg/injection, schedule: Q01DX009 (ip), vehicle: Klucel (hydroxypropylcellulose) (HPC)
  survivor count: 5 of 6

## CC(C)(C)N1C2CCCC21 (stereo not drawn)
T/C endpoint: mean survival time, dose: 100.0 mg/kg/injection, schedule: Q01DX001 (ip), vehicle: saline
  survivor count: 0 of 6
T/C endpoint: mean survival time, dose: 200.0 mg/kg/injection, schedule: Q01DX001 (ip), vehicle: saline
  survivor count: 0 of 6
T/C endpoint: mean survival time, dose: 400.0 mg/kg/injection, schedule: Q01DX001 (ip), vehicle: saline
  survivor count: 0 of 6
